Data reported in patent publication US12545900B2, “CGAS/DNCV-like nucleotidyltransferases and uses thereof” (Dana-Farber Cancer Institute, Inc., priority 2018, dated 2026).

Assay: Second messenger synthesis assay ([α-32P] NTPs, TLC, MS/NMR of products)
Type: biochemical
Protocol: Recombinant, candidate nucleotidyltransferase reactions combined 4 μL of 5× reaction buffer (250 mM CAPSO pH 9.4, […], 25 mM Mg (OAc) 2, 5 mM DTT), 2 μL of 10× NTPs, 1 uL [α-^32P] NTPs (˜1 uCi), 1 μL of candidate enzyme in storage buffer (˜20 μM), and a remaining volume of nuclease free water. The final reactions (50 mM CAPSO pH 9.4, 50 mM KCl, 5 mM Mg (OAc) 2, 1 mM DTT, ≤5% glycerol, 25-250 μM individual NTPs, trace amounts of [(-^32P] NTP, 1 μM enzyme) were started with addition of enzyme. Where indicated, pH was altered by replacing CAPSO buffer with appropriate buffer from “StockOptions pH Buffer Kit” (Hampton Research). When appropriate, Mg^2+ was replaced with an equimolar concentration of Mn^2+(MnCl2). cGAS reactions were always carried out with Tris at pH 7.5 and supplemented with 1 μM ISD45 dsDNA (Stetson & Medzhitov. (2006) Immunity 24:93-103). Reactions were carried out with 25 μM of each indicated NTP for FIGS. 1B, 3D, 8B, 8C, and 8D and for FIGS. 2C, 2G-2I, 5B, 5C, 10A-10D, 11A, 11B, and 13D. Reactions in all other figures were carried out with 250 μM NTP. The NTP/[α-^32P] NTPs in FIG. 1B are cGAS (ATP, GTP/[α-^32P] GTP), DncV (ATP, GTP/[α-^32P] ATP), DisA (ATP/[α-^32P] ATP), WspR (GTP/[xx-^32P] GTP), and CdnE (NTP/[{-^32P] NTP). P1 nuclease treated reactions in FIG. 1C and FIG. 11B are cGAS (ATP, GTP/[α-^32P] ATP), DncV (ATP, GTP/[α-^32P] GTP), CdnE (ATP, UTP/[<- ^32P] ATP), and Lp-CdnE02 (CTP, UTP/ [α-^32P] UTP) . Where indicated, nonhydrolyzable nucleotides [Ap (c) pp, Gp (c) pp, Cp (c) pp, or Up (n) pp (Jena)] were used at 25 μM.
Reactions were incubated for 2 h at 37° C. prior to analysis unless otherwise stated. Reactions were stopped by addition of 5 U of alkaline phosphatase (New England Biolabs) which removed triphosphates on remaining NTPs and converted the remaining nucleotide [α-^32P] to ^32Pi and allowed visualization of cyclic nucleotides. After a >20 min incubation, […] (PEI-cellulose) or 1 uL (silica) of the reaction was spotted 1.5 cm from the bottom of the TLC plate, spaced 0.8 cm apart. […]

| Molecule | reaction buffer pH of optimal activity (pH titration in steps of 0.2 pH units) | [α-32P] incorporated into the major product from ATP (silica TLC) | [α-32P] incorporated into the major product from GTP (silica TLC) |
| --- | --- | --- | --- |
| CdnE: E. coli cGAS/DncV-like nucleotidyltransferase, SEQ ID NO: 166 (protein, listed as Escherichia coli) MGIPESQLDTWSHQGSIAQSASTYSIIKNALESANTKYHGKNFKVFLQGSYGNDTNIYAESDVDVVICLDDVYYSDLTQLSPEDKDAYDRAFVPATYSYTQFKQDVLEALTERFGSDVKVGDKAIVVAANGSRRKADVIASMQFRRYWKFKGHYDSQYDEGICFFNGAGERIANYPKQHSENLTLKHQASNKWLKPMVRVLKNLRSKLIADGKLKSGLAPSYYLEGLLYNVPNEKFGTSYADCFVNAMNWIQTEADKDKLVCANEQYYLLWEGTHTSWEKADAEAFIDAAIKMWNEW | ~9.4 | – | – |
| Ec-CdnD02: CD-NTase from Enterobacter cloacae, SEQ ID NO: 112 (protein, listed as Enterobacter cloacae) MELQPQFNEFLANIRPTDTQKEDWKSGARTLRERLKNFEPLKEIVVSTFLQGSIRRSTAIRPLGDKRPDVDIVVVTNLDHTRMSPTDAMDLFIPFLEKYYPGKWETQGRSFGITLSYVELDLVITAIPESGAEKSHLEQLYKSESVLTVNSLEEQTDWRLNKSWTPNTGWLSESNSAQVEDAPASEWKAHPLVLPDREKNEWGRTHPLAQIRWTAEKNRLCNGHYINLVRAVKWWRQQNSEDLPKYPKGYPLEHLIGNALDNGTTSMAQGLVQLMDTFLSRWAAIYNQKSKPWLSDHGVAEHDVMARLTAEDFCSFYEGIASAAEIARNALASEEPQESAQLWRQLFGSKFPLPGPQGGDRNGGFTTPSKPAEPQKTGRFA | – | ~70% | ~30% |
